These results are taken from paper PMC8834516.

These are yes or no findings as the source states them, for the method shown. Binding seen in cells or lysates may run through a third protein. These calls come from enrichment with a bait or labelling near it, and not all partners need be listed.

For the test, the target named is T1, Transglutaminase-2 (mouse (endogenous in mouse brain)) (UniProt P21981).
T1 sequence: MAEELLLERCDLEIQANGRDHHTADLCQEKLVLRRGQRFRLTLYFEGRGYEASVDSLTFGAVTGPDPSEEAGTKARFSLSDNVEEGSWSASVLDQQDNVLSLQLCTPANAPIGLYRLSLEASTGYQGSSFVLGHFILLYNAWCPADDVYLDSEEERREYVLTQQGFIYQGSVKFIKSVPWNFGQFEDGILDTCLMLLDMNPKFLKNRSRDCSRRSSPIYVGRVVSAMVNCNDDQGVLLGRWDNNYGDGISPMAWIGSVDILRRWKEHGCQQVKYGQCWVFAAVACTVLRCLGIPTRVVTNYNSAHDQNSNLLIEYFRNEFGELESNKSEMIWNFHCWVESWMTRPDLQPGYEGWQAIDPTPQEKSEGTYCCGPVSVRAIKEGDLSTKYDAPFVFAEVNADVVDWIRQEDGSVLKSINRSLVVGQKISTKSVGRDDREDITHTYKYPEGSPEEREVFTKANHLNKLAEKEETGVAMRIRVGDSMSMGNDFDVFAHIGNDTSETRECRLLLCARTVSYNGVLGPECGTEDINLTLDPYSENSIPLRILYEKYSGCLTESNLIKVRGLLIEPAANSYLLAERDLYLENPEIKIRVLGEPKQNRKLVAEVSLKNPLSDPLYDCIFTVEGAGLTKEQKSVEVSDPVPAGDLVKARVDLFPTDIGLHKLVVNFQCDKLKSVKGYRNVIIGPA
The test can be described thus: affinity purification with mass spectrometry; TG2 immunoprecipitated from total brain homogenates of 18-month-old WT and APP23 mice with anti-TG2 antibody IA12 crosslinked to protein A/G magnetic beads, 22 h at 4 °C; IP lysis buffer 25 mM Tris pH 7.4, 150 mM NaCl, 1 mM EDTA, 1% NP40, 5% glycerol; on-bead trypsin digest, SWATH MS; TG2−/− cohorts as background, z-test p ≤ 0.05, n = 5 per cohort.

B1: Amyloid-beta A4 precursor protein-binding family B member 1 (protein, UniProt Q9QXJ1 1-710)
chain: MSVPSSLSQSAINANSHGGPALSFPLPLHAAHNQLLNAKLQATAVVPKDLRSAMGEGSVPEPGPANAKWLKEGQNQLRRAATAHRDQNRNVTLTLAEEASQEAETAPLGPKGLMHLYSELELSAHNAANRGLHGSALIINTQEQGPDEGEEKAAGEAEEDDEDEEEEEEEEDLSSPPGLPEPLENVEVPSGPQALTDGPREHSKSASLLFGMRNSAASDEDSSWATLSQGSPSYGSPEDTDSFWNPNAFETDSDLPAGWMRVQDTSGTYYWHIPTGTTQWEPPGRASPSQGSSPQEESQLTWTGFAHQEGFEEGEFWKDEPSEEAPMELGLKDPEEATLSFPAQSLSPEPVPQEEEKLSQRNANPGIKCFAVRSLGWVEMTEEELAPGRSSVAVNNCIRQLSYHKNNLHDPMAGGWGEGKDLLLQLEDETLKLVEPQNQTLLHAQPIVSIRVWGVGRDSGSNRDFAYVARDKLTQMLKCHVFRCEAPAKNIATSLHEICSKIMSERRNARCLVNGLSLDHSKLVDVPFQVEFPAPKNELVQKFQVYYLGNVPVAKPVGVDVINGALESVLSSSSREQWTPSHVSVAPATLTILHQQTEAVLGECRVRFLSFLAVGRDVHTFAFIMAAGPASFCCHMFWCEPNAASLSEAVQAACMLRYQKCLDARSQTSTSCLPAPPAESVARRVGWTVRRGVQSLWGSLKPKRLGSQTP
Take B1: the binding entry is given as “binds”.

B2: Cadherin-12 (protein, UniProt Q5RJH3 55-794)
chain: GWVWNQFFVLEEYMGSEPQYVGKLHSDLDKGEGTVKYTLSGDGAGTVFTIDETTGDIHAIRSLDREEKPFYTLRAQAVDIETRKPLEPESEFIIKVQDINDNEPKFLDGPYVASVPEMSPVGAYVLQVKATDADDPTYGNSARVVYSILQGQPYFSIDPKTGVIRTALPNMDREVKEQYQVLIQAKDMGGQLGGLAGTTVVNITLTDVNDNPPRFPKSIFHLKVPESSPVGSAIGRIRAVDPDFGKNAEIEYNIVPGDGGNLFDIVTDEDTQEGIIKLKKPLDFETKKAYTFKVEASNLHLDHRFHSAGPFKDTATVKISVLDVDEPPVFSKPLYTMEVYEDTPVGTIIGAVTAQDLDVGSSAVRYFIDWKSDGESYFTIDGTEGTIATNELLDRENMAQYNFSIIASKVSNPLLTSKVNILINVLDVNEFPPEISVPYETAVCENAKPGQIIQIVGAVDRDLSPAGQQFSFRLAPEAVIKPNFTVHDFRNNTAGIETRRNGYSRRQQELYFLPIVIEDSSYPVQSSTNTMTIRVCRCDSDGTILSCNVEAIFLPVGLSTGALIAILLCMVILLAIVVLYVALRRQRKKDTLMTSKEDIRDNVIHYDDEGGGEEDTQAFDIGALRNPKVIEENKIRRDIKPDSLCLSRQRPQVEDNTDIRDFIHRRLQENDADPAAPPYDSLATYAYEGNGSVAESLSSIDSLTTEADQDYDYLSDWGPRFKVLADMFGEEESYNPDNVT
For the molecule B2, the binding entry is on record as “binds”.

B3: Epoxide hydrolase 1 (protein, UniProt Q9D379 1-455)
chain: MWLELILASVLGFVIYWFVSRDKEETLPLEDGWWGPGSKPSAKEDESIRPFKVETSDEEIKDLHQRIDRFRASPPLEGSRFHYGFNSSYLKKVVSFWRNEFDWRKQVEILNQYPHFKTKIEGLDIHFIHVKPPQLPSGRTPKPLLMVHGWPGSFYEFYKIIPLLTDPKTHGLSDEHVFEVICPSIPGYGFSEASSKKGLNSVATARIFYKLMSRLGFQKFYIQGGDWGSLICTNIAQMVPNHVKGLHLNMSFISRNIYSLTPLLGQRFGRFLGYTEKDLELLYPFKEKVFYNIMRESGYLHIQATKPDTVGCALNDSPVGLAAYILEKFSTWTKSEYRELEDGGLERKFSLEDLLTNIMIYWTTGTIVSSQRFYKENLGQGVMVHRHEGMKVFVPTGYSAFPSEILHAPEKWVKVKYPKLISYSYMERGGHFAAFEEPKLLAQDIRKFVSLAELQ
B3: the binding entry was “binds”.

B4: Keratin, type II cytoskeletal 1 (protein, UniProt P04104 1-637)
chain: MSLQCSSRSLCRGGGGSRNFSSGSAGLVSFQRRSTSSSMRRSGGGGGGRFSGGGFCGSSGSGFGSKSLMNLGGGRSISKSVAGGGGSFCGGFGGGSYGGGGFGGGSYGGGGFGGGSFGGGGFGGSGFGGGLGGGGGFGSGGGFGGGRFGSMGPVCPPGGIQEVTINQSLLQPLNVEVDPQIQKVKSQEREQIKSLNDKFASFIDKVRFLEQQNQVLQTKWELLQQVDTTTRTQNLDPFFENYISILRRKVDSLKSDQSRMDSELKNMQDLVEEYRTKYEDEINKRTNAENEFVTIKKDVDSAYMTKVELQAKADALQQDIDFFSALYQMEMSQMQTQISETNVVLSMDNNRSLDLDGIISEVKAQYDSICQRSKAEAETFYQSKYEELQITAGKHGDSVRNTKMEISELNRMIQRLRSEIDGCKKQISQIQQNINDAEQRGEKALKDAQNKLNEIEDALSQCKEDLARLLRDFQELMNTKLALDMEIATYKKLLEGEEIRMSGECTPNVSVSVSTSHTSMSGSSSRGGGSGGGRYGGGGSYGGGSGGGSYGGSSGGGGSGGSYGGGSGGGSYGGGSGGGSSGSHRGGSGGGGGSSGGSYGGSSGGGRGGSSSGGGGVKSSGSSTVKFVSTSYSRGTK
Regarding B4, the binding entry is “binds”.

B5: Lethal(2) giant larvae protein homolog 1 (protein, UniProt Q80Y17 1-1036)
chain: MMKFRFRRQGADPQREKLKQELFAFHKTVEHGFPNQPSALAFDPELRIMAIGTRSGAVKIYGAPGVEFTGLHRDAATVTQMHFLPGQGRLLTLLDDSSLHLWEIIHHNGCAHLEEGLSFHPPSRPSFDNASFPASLTRVTVVLLVAGNTAALGTESGSIFFLDVATLALLEGQTLSPDVVLRSVPDDYRCGKALGPVESLQGHLQDPSKILIGYSRGLLVIWSQATQSVDNVFLGNQQLESLCWGRDGSSIISSHSDGSYAIWSTDTGSPPTLQPTVVTTPYGPFPCKAINKILWRSCESGDHFIIFSGGMPRASYGDRHCVSVLRAETLVTLDFTSRVIDFFTVHSTQPEDECDNPQALAVLLEEELVVLDLQTPGWPAVPAPYLAPLHSSAITCSAHVANVPSKLWARIVSAGEQQSPQPASSALSWPITGGRNLAQEPSQRGLLLTGHEDGTVRFWDASGVALRPLYKLSTAGLFQTDCEHADSLAQAVEDDWPPFRKVGCFDPYSDDPRLGIQKVALCKYTAQMVVAGTAGQVLVLELSEVPAEHAVSVANVDLLQDREGFTWKGHERLNPHTGLLPWPAGFQPRMLIQCLPPAAVTAVTLHAEWSLVAFGTSHGFGLFDYQRKSPVLARCTLHPNDSLAMEGPLSRVKSLKKSLRQSFRRIRKSRVSGKKRTPAASSKLQEANAQLAEQTCPHDLEMTPVQRRIEPRSADDSLSGVVRCLYFADTFLRDATHHGPTMWAGTNSGSVFAYALEVPAATAGGEKRPEQAVEAVLGKEVQLMHRAPVVAIAVLDGRGRPLPEPYEASRDLAQAPDMQGGHAVLIASEEQFKVFTLPKVSAKTKFKLTAHEGCRVRKVALATFASVMSEDYAETCLACLTNLGDVHVFSVPGLRPQVHYSCIRKEDISGIASCVFTRHGQGFYLISPSEFERFSLSARNITEPLCSLDISWPQNATQPRLQESPKLSQANGTRDIILAPESCEGSPSSAHSKRADTMEPPEAALSPVSIDSAASGDTMLDTTGDVTVEYVKDFLG
For B5, the binding entry was “binds”.

B6: Phosphatidylinositol-binding clathrin assembly protein (protein, UniProt Q7M6Y3 1-660)
chain: MSGQSLTDRITAAQHSVTGSAVSKTVCKATTHEIMGPKKKHLDYLIQCTNEMNVNIPQLADSLFERTTNSSWVVVFKSLITTHHLMVYGNERFIQYLASRNTLFNLSNFLDKSGLQGYDMSTFIRRYSRYLNEKAVSYRQVAFDFTKVKRGADGVMRTMNTEKLLKTVPIIQNQMDALLDFNVNSNELTNGVINAAFMLLFKDAIRLFAAYNEGIINLLEKYFDMKKNQCKEGLDIYKKFLTRMTRISEFLKVAEQVGIDRGDIPDLSQAPSSLLDALEQHLASLEGKKIKDSTAASRATTLSNAVSSLASTGLSLTKVDEREKQAALEEEQARLKALKEQRLKELAKKPHTSLTTAASPVSTSAGGIMTAPAIDIFSTPSSSNSTSKLPNDLLDLQQPTFHPSVHAMSAAPQGASTWGDPFSATLDAVEDAIPSLNPFLTKSSGDVHLPIASDVSTFTTRTPTHEMFVGFSPSPVAQPHSSAGLNVDFESVFGNKSTNVAVDSGGFDELGGLLKPTVASQNQSLPVAKLPPNKLVSDDLDSSLANLVGNLGIGNGTTKNDVSWSQPGEKKLTGGSNWQPKVAPTTAWSAATMNGMHFPQYAPPVMAYPATTPTGMIGYGIPPQMGSVPVMTQPTLIYSQPVMRPPNPFGPVSGAQIQFM
With B6, the binding result was “binds”.

B7: Serpin B6 (protein, UniProt Q60854 1-378)
chain: MDPLQEANGTFALNLLKILGEDSSKNVFLSPMSISSALAMVFMGAKGTTASQMAQALALDKCSGNGGGDVHQGFQSLLTEVNKTGTQYLLRTANRLFGDKTCDLLASFKDSCLKFYEAELEELDFQGATEESRQHINTWVAKKTEDKIKEVLSPGTVNSDTSLVLVNAIYFKGNWEKQFNKEHTREMPFKVSKNEEKPVQMMFKKSTFKMTYIGEIFTKILLLPYVSSELNMIIMLPDEHVELSTVEKEVTYEKFIEWTRLDKMDEEEVEVFLPKFKLEENYNMNDALYKLGMTDAFGGRADFSGMSSKQGLFLSKVVHKAFVEVNEEGTEAAAATAGMMTVRCMRFTPRFCADHPFLFFIHHVKTNGILFCGRFSSP
In the case of B7, the binding entry is reported as “binds”.

B8: Mitochondrial peptide methionine sulfoxide reductase (protein, UniProt Q9D6Y7 21-233)
chain: MGDSASKVISAEEALPGRTEPIPVTAKHHVSGNRTVEPFPEGTQMAVFGMGCFWGAERKFWVLKGVYSTQVGFAGGHTRNPTYKEVCSEKTGHAEVVRVVYRPEHISFEELLKVFWENHDPTQGMRQGNDFGTQYRSAVYPTSAVQMEAALRSKEEYQKVLSKHNFGPITTDIREGQVFYYAEDYHQQYLSKNPDGYCGLGGTGVSCPMAIKK
In the case of B8, the binding result is reported as “binds”.

B9: Cystatin-C (protein, UniProt P21460 21-140)
chain: ATPKQGPRMLGAPEEADANEEGVRRALDFAVSEYNKGSNDAYHSRAIQVVRARKQLVAGVNYFLDVEMGRTTCTKSQTNLTDCPFHDQPHLMRKALCSFQIYSVPWKGTHSLTKFSCKNA
In the case of B9, the binding result was “binds”.
